Data as given in PubChem BioAssay AID1259254 (NCATS, 2017)
In all, the deposit lists about 59,000 reagents; shown is a part drawn at random. In the full data, about 1,550 (2.6%) were called active. 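G2 share is only a proxy for re-replication; each gene was hit by three separate siRNAs, and active genes were retested.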 Unmarked entries are inactive. Not all columns of the deposit are shown. Not stated in the record: the amount of reagent.

- Purpose: 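Gene knock-downs that lead to re-replication, shown by excess G2 DNA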 (primary screen)
- Cells: human HCT116 colorectal cancer cells
- Reagents: single siRNA against human genes
- Time to read-out: 3 days
- Measurement: 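Imaged Hoechst DNA stain sorts each cell into a cycle phase by DNA amount; per plate, G2 fraction set to 0% for non-targeting and 100% for GMNN siRNA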
- Reading the numbers: G2 robust z-score and G2 cells, % of GMNN control: higher = more G2 cells, more excess DNA replication
- Call rule: 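An siRNA counts as active if its G2 robust z-score lies at least 5 MADs above the screen median; here such calls match roughly 38% of GMNN control or more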

Knock-down of LRRIQ1 (leucine rich repeats and IQ motif containing 1) [SID160732012] came out at: G2 robust z-score -0.75; G2 cells, % of GMNN control -2.31. Silencing of LRRIQ1 (leucine rich repeats and IQ motif containing 1) [SID160751750] came out at: G2 robust z-score -0.412; G2 cells, % of GMNN control 0.0677. Knock-down of LRRIQ1 (leucine rich repeats and IQ motif containing 1) [SID160751751] came out at: G2 robust z-score 0.322; G2 cells, % of GMNN control 5.23. After knock-down of FLJ32255 [SID160725687], the record shows G2 robust z-score 2.49; G2 cells, % of GMNN control 20.5. With knock-down of FLJ32255 [SID160725688], the record shows G2 robust z-score 1.2; G2 cells, % of GMNN control 11.4. Depletion of FLJ32255 [SID160733853] gave: G2 robust z-score -0.436; G2 cells, % of GMNN control -0.099.

NRIP3 (nuclear receptor interacting protein 3) [SID160731563] scored G2 robust z-score 3.54; G2 cells, % of GMNN control 27.8. With knock-down of NRIP3 (nuclear receptor interacting protein 3) [SID160745141] the results were G2 robust z-score 0.3; G2 cells, % of GMNN control 5.08. After knock-down of NRIP3 (nuclear receptor interacting protein 3) [SID160745142], the record shows G2 robust z-score 0.553; G2 cells, % of GMNN control 6.86. B3GALT5 (beta-1,3-galactosyltransferase 5) [SID160728153] showed G2 robust z-score -0.0471; G2 cells, % of GMNN control 2.64. Against B3GALT5 (beta-1,3-galactosyltransferase 5) [SID160728154], the entry reads G2 robust z-score -0.528; G2 cells, % of GMNN control -0.745. B3GALT5 (beta-1,3-galactosyltransferase 5) [SID160728155] scored G2 robust z-score 0.154; G2 cells, % of GMNN control 4.05.

PLCG1 (phospholipase C gamma 1) [SID160714453] showed G2 robust z-score -0.423; G2 cells, % of GMNN control -0.0104. After knock-down of PLCG1 (phospholipase C gamma 1) [SID160714454], the screen gave G2 robust z-score -0.507; G2 cells, % of GMNN control -0.603. PLCG1 (phospholipase C gamma 1) [SID160714455] showed G2 robust z-score 0.12; G2 cells, % of GMNN control 3.81. Silencing of RUFY2 (RUN and FYVE domain containing 2) [SID160731520] came out at: G2 robust z-score 0.0229; G2 cells, % of GMNN control 3.13. With knock-down of RUFY2 (RUN and FYVE domain containing 2) [SID160744072], the screen gave G2 robust z-score -0.842; G2 cells, % of GMNN control -2.96. After knock-down of RUFY2 (RUN and FYVE domain containing 2) [SID160744073], the screen gave G2 robust z-score 0.533; G2 cells, % of GMNN control 6.72.

Depletion of SLC3A1 [SID160716821] resulted in: G2 robust z-score 6.3 (active); G2 cells, % of GMNN control 47.3. Against SLC3A1 [SID160716822], the values are G2 robust z-score -0.0616; G2 cells, % of GMNN control 2.53. SLC3A1 [SID160716823] scored G2 robust z-score -0.936; G2 cells, % of GMNN control -3.62. Silencing of TP53AIP1 (tumor protein p53 regulated apoptosis inducing protein 1) [SID160733740] resulted in: G2 robust z-score 1.21; G2 cells, % of GMNN control 11.5. Depletion of TP53AIP1 (tumor protein p53 regulated apoptosis inducing protein 1) [SID160747347] came out at: G2 robust z-score 1.13; G2 cells, % of GMNN control 10.9. With knock-down of TP53AIP1 (tumor protein p53 regulated apoptosis inducing protein 1) [SID160747348], the record shows G2 robust z-score 2.89; G2 cells, % of GMNN control 23.3.

Knock-down of LRRN4CL (LRRN4 C-terminal like) [SID160732702] came out at: G2 robust z-score -0.146; G2 cells, % of GMNN control 1.94. With knock-down of LRRN4CL (LRRN4 C-terminal like) [SID160761600], the screen gave G2 robust z-score 1.41; G2 cells, % of GMNN control 12.9. After knock-down of LRRN4CL (LRRN4 C-terminal like) [SID160761601], the screen gave G2 robust z-score -0.918; G2 cells, % of GMNN control -3.49. ASB9 (ankyrin repeat and SOCS box containing 9) [SID160757775] showed G2 robust z-score 1.97; G2 cells, % of GMNN control 16.8. With knock-down of ASB9 (ankyrin repeat and SOCS box containing 9) [SID160757776], the screen gave G2 robust z-score 1.35; G2 cells, % of GMNN control 12.5. After knock-down of ASB9 (ankyrin repeat and SOCS box containing 9) [SID160757777] the results were G2 robust z-score -0.489; G2 cells, % of GMNN control -0.473.

Records above whose gene name begins with L or l:
LRRIQ1 (leucine rich repeats and IQ motif containing 1) [SID160732012] → G2 robust z-score = -0.75; G2 cells, % of GMNN control = -2.31
LRRIQ1 (leucine rich repeats and IQ motif containing 1) [SID160751750] → G2 robust z-score = -0.412; G2 cells, % of GMNN control = 0.0677
LRRIQ1 (leucine rich repeats and IQ motif containing 1) [SID160751751] → G2 robust z-score = 0.322; G2 cells, % of GMNN control = 5.23
LRRN4CL (LRRN4 C-terminal like) [SID160732702] → G2 robust z-score = -0.146; G2 cells, % of GMNN control = 1.94
LRRN4CL (LRRN4 C-terminal like) [SID160761600] → G2 robust z-score = 1.41; G2 cells, % of GMNN control = 12.9
LRRN4CL (LRRN4 C-terminal like) [SID160761601] → G2 robust z-score = -0.918; G2 cells, % of GMNN control = -3.49
